Drawing on article PMC7819943, “Rice protein-binding microarrays: a tool to detect cis-acting elements near promoter regions in rice”, this text covers binding signal for 42 sequences.

Sequences of proteins named here, by UniProt entry; tags and fusion partners are left off.
UniProt Q0JBA9, entry or part of it: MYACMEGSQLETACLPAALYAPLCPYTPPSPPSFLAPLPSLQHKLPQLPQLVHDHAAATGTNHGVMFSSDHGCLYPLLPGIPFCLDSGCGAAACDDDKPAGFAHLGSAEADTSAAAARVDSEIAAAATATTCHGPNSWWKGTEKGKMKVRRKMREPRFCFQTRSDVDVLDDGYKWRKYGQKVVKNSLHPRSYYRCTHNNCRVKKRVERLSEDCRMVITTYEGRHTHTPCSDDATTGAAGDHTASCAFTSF

The list shows a part of the results.

The target in the assay is OsWRKY34 (Oryza sativa, UniProt Q0JBA9 1-250). Description: protein-binding microarray (RPBM); PBS, 2% BSA, 51.3 ng/ul salmon testes DNA, 50 uM zinc acetate, 200 nM TF, 25 C, 1 h; high values mean tight binding. As to conditions: protein: recombinant; tags: N-terminal polyhistidine and DsRed monomer fusion (pET32a); label: CyDye5-dUTP incorporated in the synthesized complementary strand; 3' TTTTT single-stranded linker to array surface; dsDNA, one strand shown. The method in brief: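 Transcription factors, each fused N-terminally to a polyhistidine tag and DsRed, were expressed in E. coli BL21-CodonPlus and purified on Ni–NTA. A custom Agilent array was made double-stranded by primer extension with Cy5-dUTP and blocked with 2% BSA. It was incubated with 200 nM protein in PBS, 2% BSA, salmon testes DNA and 50 µM zinc acetate at 25 °C for 1 h, then washed. The binding signal is per-feature fluorescence intensity (arbitrary units) read on an Axon 4000B scanner.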
For the sequence “TATGTCCGGTACAATCTCATTTCCATCGTATAGCGACCGTCGGAGTCACCTAGTGCAG”, the binding signal is 10100 fluorescence intensity (a.u.).

Regarding “GTTCGTCCCGCTGCTTCCGCCGCATCCGTTGCGCACATCCCGGAGTCACCTAGTGCAG”, the binding signal is 11400 fluorescence intensity (a.u.).

Regarding “ACTTTTAAACCCATGTTTTACCATTCATCTTAATAAAAAACGGAGTCACCTAGTGCAG”, the binding signal was 8840 fluorescence intensity (a.u.).

With “GGTATTGGTTTGTTGACTCGTACTCTCGTACTGGTCATTGCGGAGTCACCTAGTGCAG”, the binding signal was 9040 fluorescence intensity (a.u.).

On to “CGCCTCCGAGTCCCAAAACCCTAGCCATTTCTGGTTCCCTCGGAGTCACCTAGTGCAG”, for which the binding signal was 9320 fluorescence intensity (a.u.).

“CCTCGACCTCTCGCTACTCCAGGCGCCGCCCCATCAGATGCGGAGTCACCTAGTGCAG”: the binding signal is 8200 fluorescence intensity (a.u.).

For the sequence “ACATGTCACATATTACGTCCATTTGAGTTCAATTTTTCTACGGAGTCACCTAGTGCAG”, the binding signal is 10700 fluorescence intensity (a.u.).

With “CTTCTTAGCTTCCGTGTCATGTTTCTTTTTGTTATCTTTTCGGAGTCACCTAGTGCAG”, the binding signal was 10800 fluorescence intensity (a.u.).

Regarding “GGCCCACTTATTTCCGACCACCGACGGCCGCGAGCGGCCCCGGAGTCACCTAGTGCAG”, the binding signal is 8810 fluorescence intensity (a.u.).

Regarding “CCAGCACGACGTACTGCACCACCGCGGCACCCAACTCAAGCGGAGTCACCTAGTGCAG”, the binding signal is 8290 fluorescence intensity (a.u.).

“GTGGAATCGTTCGTTCTTGACTTCACCTACCAAGATTTGCCGGAGTCACCTAGTGCAG”: the binding signal was 8640 fluorescence intensity (a.u.).

Take “AGGATCCAGCTCTTACGGCCCAATCTCCATCACGATCTCACGGAGTCACCTAGTGCAG”: the binding signal is 8350 fluorescence intensity (a.u.).

With “ATTAATACAGGTGATAGGGTAGGGTTAGCTTTTGACTCTTCGGAGTCACCTAGTGCAG”, the binding signal was 11300 fluorescence intensity (a.u.).

For “AACCAAAATTCCAACTTGTCATCCATGCATGCATCCTCCACGGAGTCACCTAGTGCAG”, the binding signal is 8170 fluorescence intensity (a.u.).

With “GTTTCTCCACTAGTGTTATTTGCCAGCTAATCATCGACCACGGAGTCACCTAGTGCAG”, the binding signal is 8520 fluorescence intensity (a.u.).

As for “TGACGCCGTTGGTTTTTTTAAACATGTTTGACCATTCGTCCGGAGTCACCTAGTGCAG”, the binding signal is 8990 fluorescence intensity (a.u.).

“CGTGCCACCTCGGCGCATGCCTCTCTACGGCTAGCTACTCCGGAGTCACCTAGTGCAG”: the binding signal is 9020 fluorescence intensity (a.u.).

Regarding “TTAAGCTGCTATTTTTTTTTTGTCTTGTGTTTATACTTTTCGGAGTCACCTAGTGCAG”, the binding signal is 8720 fluorescence intensity (a.u.).

Take “TTTTTTGTCATTGTAATGACATGGTGTTGAGCTGTTGATTCGGAGTCACCTAGTGCAG”: the binding signal was 8880 fluorescence intensity (a.u.).

Consider “GGTTTGTTTGGAGGCGCAATGTTTCTCACCCTGTCGTTCCCGGAGTCACCTAGTGCAG”, for which the binding signal was 12700 fluorescence intensity (a.u.).

As to “TTGCCTATCATCGATCTGTAAATCGAGAATTTTATCTTTTCGGAGTCACCTAGTGCAG”, the binding signal is 8530 fluorescence intensity (a.u.).

With “AATCATCACCATCCTCGATTCCTCTCCACCGCGCTTTCCGCGGAGTCACCTAGTGCAG”, the binding signal is 13100 fluorescence intensity (a.u.).

As for “TTGTATCTACGTTTGAATTTGTGTTTTATCCATCATACGTCGGAGTCACCTAGTGCAG”, the binding signal was 8300 fluorescence intensity (a.u.).

As for “GTACGCTGAGCTCGTTGATAGATTTGGGCTAGCCCCAACGCGGAGTCACCTAGTGCAG”, the binding signal is 8480 fluorescence intensity (a.u.).

Turning to “ATCAAATTTTAGTAGGTAACATATACTTCATCCGTTTCACCGGAGTCACCTAGTGCAG”, the binding signal was 8410 fluorescence intensity (a.u.).

Turning to “AAGCTCACCCATGTTTGTGCCCACACATCTCTCTTCCACCCGGAGTCACCTAGTGCAG”, the binding signal was 9040 fluorescence intensity (a.u.).

Regarding “CCAACGCATCGCCCCACAAATCACGCCGCCGTCGCCACCCCGGAGTCACCTAGTGCAG”, the binding signal is 8350 fluorescence intensity (a.u.).

“GTACTATTACCCATCTTCTTCTTCCTCATTTTCTCCCTCCCGGAGTCACCTAGTGCAG”: the binding signal was 8120 fluorescence intensity (a.u.).

On to “AGAGAGAGACCACATAAATTATACTCTTTTTTTTTGCTGTCGGAGTCACCTAGTGCAG”, for which the binding signal was 8810 fluorescence intensity (a.u.).

“ACCTCTTGCAATTAATAGCTTGACTTTGACTTTGACTTCCCGGAGTCACCTAGTGCAG”: the binding signal was 14500 fluorescence intensity (a.u.).

With “TATGTTTGGCTATGCTGTCTTTGCATTGATATATCCTGGACGGAGTCACCTAGTGCAG”, the binding signal is 8140 fluorescence intensity (a.u.).

Take “TTCGGAGGGGTTGGCAGCGATGCGACGAGGGCAGGATACACGGAGTCACCTAGTGCAG”: the binding signal was 8080 fluorescence intensity (a.u.).

Consider “AATTCTGTCTCATGTAGCCTGTTGATTGTCCTGCTTCTTTCGGAGTCACCTAGTGCAG”, for which the binding signal is 8080 fluorescence intensity (a.u.).

For the sequence “CATGAGATGTTGCTAGCCAAATAGTCCATCTTCTAAACAGCGGAGTCACCTAGTGCAG”, the binding signal is 9450 fluorescence intensity (a.u.).

As for “GCTCCCATGGCGCTCGTCTCCACCACCGCCACAGTCGCGTCGGAGTCACCTAGTGCAG”, the binding signal is 11600 fluorescence intensity (a.u.).

With “ATTATCCCTCGGACACCCTATGTTACTTTTTCTTTCTATCCGGAGTCACCTAGTGCAG”, the binding signal was 14100 fluorescence intensity (a.u.).

Turning to “TCATCCGTCCATCTGCCATCTCATCTCATCTCATCTCAACCGGAGTCACCTAGTGCAG”, the binding signal was 9480 fluorescence intensity (a.u.).

On to “ACTCCTGCTGCTCGCCTTGTTGTTTGCGTTATTGTTTGTTCGGAGTCACCTAGTGCAG”, for which the binding signal is 11000 fluorescence intensity (a.u.).

As for “GATTTTGGGCCAACGCTAGTGTACTTCCCACGGCCCATTTCGGAGTCACCTAGTGCAG”, the binding signal is 8080 fluorescence intensity (a.u.).

For “CCTCCAGCACCGCACATGTCCGCAACCGCTCTCCTGCAGACGGAGTCACCTAGTGCAG”, the binding signal was 8880 fluorescence intensity (a.u.).

With “ATACCGCCATCGTCTCTTTCTCGTCGTCGCCGGCGACGCCCGGAGTCACCTAGTGCAG”, the binding signal was 13400 fluorescence intensity (a.u.).

With “CAGGTTCGTAGCTAGGGTTTGTCTTTGTTTAGGACGGAGTCGGAGTCACCTAGTGCAG”, the binding signal is 8690 fluorescence intensity (a.u.).
